In this assay the target is SOX9 (human (endogenous in MCF-7 and T47D)), P48436. In words: co-IP; endogenous proteins; lysates of TAMR MCF-7 (and TAMR T47D) cells precipitated with anti-SOX9 and protein G magnetic beads overnight, blotted for SIRT1, HDAC4 or HDAC5. Conditions: remark: other sources report otherwise.

No constants are given. Whether binding was seen depends on the method and setting. Binding seen in cells or lysates may run through a third protein.

B1: Sirtuin 1 (SIRT1), Q96EB6 1-747 (enzyme)
chain: MADEAALALQPGGSPSAAGADREAASSPAGEPLRKRPRRDGPGLERSPGEPGGAAPEREVPAAARGCPGAAAAALWREAEAEAAAAGGEQEAQATAAAGEGDNGPGLQGPSREPPLADNLYDEDDDDEGEEEEEAAAAAIGYRDNLLFGDEIITNGFHSCESDEEDRASHASSSDWTPRPRIGPYTFVQQHLMIGTDPRTILKDLLPETIPPPELDDMTLWQIVINILSEPPKRKKRKDINTIEDAVKLLQECKKIIVLTGAGVSVSCGIPDFRSRDGIYARLAVDFPDLPDPQAMFDIEYFRKDPRPFFKFAKEIYPGQFQPSLCHKFIALSDKEGKLLRNYTQNIDTLEQVAGIQRIIQCHGSFATASCLICKYKVDCEAVRGDIFNQVVPRCPRCPADEPLAIMKPEIVFFGENLPEQFHRAMKYDKDEVDLLIVIGSSLKVRPVALIPSSIPHEVPQILINREPLPHLHFDVELLGDCDVIINELCHRLGGEYAKLCCNPVKLSEITEKPPRTQKELAYLSELPPTPLHVSEDSSSPERTSPPDSSVIVTLLDQAAKSNDDLDVSESKGCMEEKPQEVQTSRNVESIAEQMENPDLKNVGSSTGEKNERTSVAGTVRKCWPNRVAKEQISRRLDGNQYLFLPPNRYIFHGAEVYSDSEDDVLSSSSCGSNSDSGTCQSPSLEEPMEDESEIEEFYNGLEDEPDVPERAGGAGFGTDGDDQEAINEAISVKQEVTDMNYPSNKS
On to B1, for which the binding result was “no binding”.

Source of the values: article PMC6964674.
